The values that follow are results of earlier work, collected in patent EP2727592A1 (Kücükgüzel, Sükriye Güniz, priority 2012, dated 2014).

The structures appear in SMILES notation.

For the series the following is noted: in vivo.

On to `Clc1ccc2c(c1)CCc1cccnc1C2=C1CCNCC1` [Desloratadine, 8-Chloro-6,11-dihydro-11-(4-piperidinylidene)-5H-benzo[5,6]cyclohepta[1,2-b]pyridine], for which the duration of effect is 24 h.
